The values below come from the supplement of paper PMC3682954.

SMILES strings stand for the structures. Counter-ions that a name gives are not always drawn. ± gives the standard deviation of the averaged measurements. Some of the results follow. Many values rest on one well or one pass, so single values are uncertain.

The test system of this experiment is RAW 264.7. In words: cell viability (MTT) relative to vehicle control; higher = more viable cells. To be noted: stimulus: HMGB1 5 ug/ml, 18 h.
The mark [1] stands for this setting: compound concentration: 1 ug/ml.

For the compound `CC[N+](C)(C)Cc1ccccc1Br`, the cell viability (compound concentration: 3 uM) was 106%. Still for that read-out and setting: in the case of `CCCCCCCCc1ccc(-c2ccc(C(=O)O)cc2)cc1` it was 89%; in that of `C[N+](C)(C)CCCCCC[N+](C)(C)C`, 109%. Consider `C[N+](C)(C)CCCCCC[N+](C)(C)C` [Hexamethonium dibromide dihydrate], for which, for the setting “compound concentration: 3 uM”, the cell viability amounted to 91.1%.

Consider `C[N+](C)(C)CCCCCC[N+](C)(C)C` [Hexamethonium dichloride], for which the cell viability (compound concentration: 3 uM) worked out at 108%. On to `C[N+](C)(C)CCCCCC[N+](C)(C)C` [Hexamethonium bromide], for which, under “compound concentration: 3 uM”, the cell viability was found to be 111%. With `CC1C(=O)OC2C(O)C34C5CC(C(C)(C)C)C36C(OC(=O)C6O)OC4(C(=O)O5)C12O` (centres undefined) [Ginkgolide B], the cell viability under setting [1] worked out at 98.3%. Regarding `CCCCCC[C@@H]([C@@H](C)O)n1cnc2c(N)ncnc21` [erythro-9-(2-Hydroxy-3-nonyl)adenine hydrochloride], for the setting “compound concentration: 3 uM”, the cell viability came to 110%. The same measure, in the same setting: the same measure for `CN(C)/N=N/c1[nH]cnc1C(N)=O` [Dacarbazine]: 110 ± 4.1%. The same measure, in the same setting: in the case of `CN(C)/N=N/c1[nH]cnc1C(N)=O` it was 98.2 ± 2.6%; in that of `Cc1onc(-c2c(Cl)cccc2Cl)c1C(=O)N[C@@H]1C(=O)N2[C@@H]1SC(C)(C)[C@@H]2C(=O)O` [Dicloxacillin sodium salt], 96.5%. On to `Cc1onc(-c2c(Cl)cccc2Cl)c1C(=O)N[C@@H]1C(=O)N2[C@@H]1SC(C)(C)[C@@H]2C(=O)O`, for which the cell viability (compound concentration: 3 uM) came out at 98.2%. Turning to `CN1C(C)(C)CCCC1(C)C` [Pempidine tartrate], the cell viability (compound concentration: 3 uM) turned out to be 110%. On the same count and under the same terms, in the case of `CN1C(C)(C)CCCC1(C)C` it was 111%; in that of `CCOC(=O)[C@H](CCc1ccccc1)N[C@@H](C)C(=O)N1Cc2ccccc2C[C@H]1C(=O)O` [Quinapril], 110%. Turning to `CCOC(=O)[C@H](CCc1ccccc1)N[C@@H](C)C(=O)N1Cc2ccccc2C[C@H]1C(=O)O`, the cell viability (compound concentration: 3 uM) was 104%.

For `CCOC(=O)[C@H](CCc1ccccc1)N[C@@H](C)C(=O)N1Cc2ccccc2C[C@H]1C(=O)O` [Quinapril HCl], the cell viability (compound concentration: 3 uM) worked out at 96.6%.

On to `CC(CCc1ccccc1)NCC(O)c1ccc(O)c(C(N)=O)c1` (centres undefined), for which, where the note is “compound concentration: 3 uM”, the cell viability worked out at 108%.

In the case of `CC(CCc1ccccc1)NCC(O)c1ccc(O)c(C(N)=O)c1` (centres undefined) [Labetalol hydrochloride], the cell viability (compound concentration: 3 uM) was determined as 101 ± 8.9%. Same read-out and setting: the same measure for `Cc1cn(C2C=CC(CO)O2)c(=O)[nH]c1=O` (centres undefined) [2',3'-didehydro-3'-deoxythymidine]: 110%; for `O=C(O)c1cccnc1Nc1cccc(C(F)(F)F)c1`: 106%; for `O=C(O)c1cccnc1Nc1cccc(C(F)(F)F)c1` [Niflumic acid]: 94.7 ± 18%. Same read-out and setting: the same measure for `Cc1oncc1C(=O)Nc1ccc(C(F)(F)F)cc1` [Leflunomide]: 113 ± 16%; for `COc1ccc(C(Cl)=C(c2ccc(OC)cc2)c2ccc(OC)cc2)cc1` [Chlorotrianisene]: 123%; for `COc1ccc(C(Cl)=C(c2ccc(OC)cc2)c2ccc(OC)cc2)cc1`: 117%.

For `CC1CC(OC(=O)C(O)c2ccccc2)CC(C)(C)C1` (centres undefined), the cell viability (compound concentration: 3 uM) was determined as 116%.

In the case of `Nc1nc2c(ncn2[C@H]2C[C@H](O)[C@@H](CO)O2)c(=O)[nH]1` [2'-Deoxyguanosine hydrate], the cell viability under setting [1] was found to be 91.9%. As to `NS(=O)(=O)c1cc(C(=O)O)cc(N2CCCC2)c1Oc1ccccc1` [Piretanide], the cell viability (compound concentration: 3 uM) was found to be 92.3%.

Turning to `Cc1cc(C(C)(C)C)c(O)c(C)c1CC1=NCCN1` [Oxymetazoline], for the setting “compound concentration: 3 uM”, the cell viability came to 103%.

Consider `Cc1cc(C(C)(C)C)c(O)c(C)c1CC1=NCCN1` [Oxymetazoline hydrochloride], for which the cell viability (compound concentration: 3 uM) was 101.6 ± 0.54%. Still for that read-out and setting: the same measure for `Cc1cc(C(C)(C)C)c(O)c(C)c1CC1=NCCN1`: 105%; for `CN(C)CCCN1c2ccccc2Sc2ccccc21`: 94.8%; for `CN(C)CCCN1c2ccccc2Sc2ccccc21` [Promazine hydrochloride]: 115 ± 9.6%.

Regarding `CC(N)=NCCCC[C@H](N)C(=O)O` [L-N6-(1-Iminoethyl)lysine hydrochloride], under “compound concentration: 3 uM”, the cell viability came out at 98.8%.

As for `CC(C)(C(=O)O)c1ccc(C(O)CCCN2CCC(C(O)(c3ccccc3)c3ccccc3)CC2)cc1` (centres undefined) [Fexofenadine hydrochloride], the cell viability (compound concentration: 3 uM) is 101%. Consider `CC(C)(C(=O)O)c1ccc(C(O)CCCN2CCC(C(O)(c3ccccc3)c3ccccc3)CC2)cc1` (centres undefined), for which the cell viability (compound concentration: 3 uM) came out at 105%. On the same count and under the same terms, in the case of `CC(C)(C(=O)O)c1ccc(C(O)CCCN2CCC(C(O)(c3ccccc3)c3ccccc3)CC2)cc1` (centres undefined) [Fexofenadine HCl] it was 99.8%. Consider `COc1ccc([C@@H]2CC(=O)c3c(O)cc(O[C@@H]4O[C@H](CO[C@@H]5O[C@@H](C)[C@H](O)[C@@H](O)[C@H]5O)[C@@H](O)[C@H](O)[C@H]4O)cc3O2)cc1O` [Hesperidin, 80%], for which the cell viability under setting [1] stood at 103%. With `COc1ccc([C@@H]2CC(=O)c3c(O)cc(O[C@@H]4O[C@H](CO[C@@H]5O[C@@H](C)[C@H](O)[C@@H](O)[C@H]5O)[C@@H](O)[C@H](O)[C@H]4O)cc3O2)cc1O` [Hesperidin], the cell viability (compound concentration: 3 uM) is 118%.

What is called cell viability is a read-out of living cells in per cent, often relative to untreated cells.
